Laboratory results reported in PubChem BioAssay AID977627 (Broad Institute, 2014).
The list shows a part of the results. Further columns of the screen follow, without active or inactive calls.

experiment: growth inhibition of wild-type RFP versus H38-humanized GFP E. coli, dose response, H38 mutant GFP vs wild-type RFP, cherry-pick (AID 977627); conditions: E. coli H38 humanized ribosome GFP strain, fluorescence, 24 h; measured here: wild-type RFP strain growth; at 50 µM; stronger effect = lower value

| SMILES | activity |
| --- | --- |
| CCn1c(-c2cc(-c3ccc(OC(C)C)cc3)nc3ccccc23)n[nH]c1=S | -25.6% |
| C=CCNC(=O)c1ccccc1NC(=O)c1ccc(Cl)c(S(=O)(=O)Nc2cccc(C)c2C)c1 | -60.6% |
| Cc1c(C(=O)O)sc2nc(CSc3ncc(C(F)(F)F)cc3Cl)[nH]c(=O)c12 | -84.8% |
| C[C@@H]1CCCCO[C@H](CN(C)CC2CC2)[C@H](C)CN([C@@H](C)CO)C(=O)c2cc(NC(=O)Nc3cccc4ccccc34)ccc2O1 | -95.9% |
| COc1ccc(NC(=O)c2ccc(-c3ccc([N+](=O)[O-])cc3)o2)cc1 | -38.3% |
| Cc1[nH]c(=S)sc1Cc1ccc(Cl)c(Cl)c1 | -28.2% |
| CCOC(=O)c1c(NC(=O)Cc2cccs2)sc(C)c1C | -80.6% |
| Cc1ccc(C)c(NC(=O)CSc2nc3nc(-c4cccs4)cc(C(F)(F)F)c3c(=O)[nH]2)c1 | -51% |
| Cc1cc(C)c(C#N)c(N2CCN(c3ccccc3)CC2)n1 | -58.4% |
| O=C(O)c1cc([N+](=O)[O-])ccc1NCc1ccccc1 | -38.6% |
| COc1ccc(Cn2c(-c3ccc(Cl)cc3)c[n+]3ccccc23)cc1 | -67.6% |
| Cc1cc(C)c(OCCNC(=O)c2ccccc2Sc2ccccc2C#N)c(C)c1 | -23.3% |
| COc1ccc(-n2cc(-c3ccccc3)c3c(N4CCOCC4)ncnc32)cc1 | -81.3% |
| COc1ccc(Nc2oc(-c3ccco3)nc2S(=O)(=O)c2ccc(F)cc2)cc1 | -5.15% |
| CC[C@H]1OC(=O)[C@H](C)[C@@H](O[C@H]2C[C@@](C)(OC)[C@@H](O)[C@H](C)O2)[C@H](C)[C@@H](O[C@@H]2O[C@H](C)C[C@H](N(C)C)[C@H]2O)[C@](C)(O)C[C@@H](C)[C@@H]2N[C@@H](COCCOC)O[C@H]([C@H]2C)[C@]1(C)O | -79.1% |
| CC(CNc1ccc(Cl)cc1)(CNc1ccc(Cl)cc1)[N+](=O)[O-] | -32% |
| CSc1nc(N)nc(SC2C=CCCC2)c1C#N (stereo not drawn) | -53.1% |
| CCN(CC)CCn1c2ccccc2c2nc3ccc([N+](=O)[O-])cc3cc21 | -15.8% |
| Cc1ccc(S(=O)(=O)N2CC[C@H]3[C@H](CO)Nc4ccc(Br)cc4[C@H]32)cc1 | -85.3% |
| C[C@@H]1CCCCO[C@H](CN(C)C(=O)CCCN(C)C)[C@H](C)CN([C@@H](C)CO)C(=O)c2cc(NC(=O)Nc3cccc4ccccc34)ccc2O1 | -44.9% |
| COc1ccc2[nH]c3c(=O)n(CCCCC(=O)NCCC(C)C)c(=S)[nH]c3c2c1 | -6.76% |
| COc1cccc(C(=O)Nc2cc(C)nn2-c2ccccc2)c1OC | -78.5% |
| COc1cc2c(cc1[N+](=O)[O-])-c1ccc([N+](=O)[O-])cc1C2 | -2.43% |

In another format: results already given.
SMILES | activity
C[C@@H]1CCCCO[C@H](CN(C)CC2CC2)[C@H](C)CN([C@@H](C)CO)C(=O)c2cc(NC(=O)Nc3cccc4ccccc34)ccc2O1 | -95.9%
Cc1[nH]c(=S)sc1Cc1ccc(Cl)c(Cl)c1 | -28.2%
CCOC(=O)c1c(NC(=O)Cc2cccs2)sc(C)c1C | -80.6%
Cc1cc(C)c(OCCNC(=O)c2ccccc2Sc2ccccc2C#N)c(C)c1 | -23.3%
COc1ccc(-n2cc(-c3ccccc3)c3c(N4CCOCC4)ncnc32)cc1 | -81.3%
COc1cc2c(cc1[N+](=O)[O-])-c1ccc([N+](=O)[O-])cc1C2 | -2.43%
